Results taken from the supplement of paper PMC10849652.
The list shows a part of the results.

Sequences of proteins named here, by UniProt entry; tags and fusion partners are left off. A change or cut given only in a name is not applied to a line headed by its entry.
UniProt Q969L4: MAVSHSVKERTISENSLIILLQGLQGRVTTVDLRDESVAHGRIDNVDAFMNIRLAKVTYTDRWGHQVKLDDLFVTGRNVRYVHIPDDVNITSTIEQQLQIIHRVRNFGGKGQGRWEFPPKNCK
UniProt Q8N9N7: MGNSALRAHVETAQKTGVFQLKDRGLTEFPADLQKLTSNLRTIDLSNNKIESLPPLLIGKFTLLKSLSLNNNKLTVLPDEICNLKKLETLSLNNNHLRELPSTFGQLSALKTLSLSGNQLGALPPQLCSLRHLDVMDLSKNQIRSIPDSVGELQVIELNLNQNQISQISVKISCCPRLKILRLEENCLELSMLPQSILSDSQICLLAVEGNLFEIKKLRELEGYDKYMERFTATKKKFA
UniProt Q8ND56: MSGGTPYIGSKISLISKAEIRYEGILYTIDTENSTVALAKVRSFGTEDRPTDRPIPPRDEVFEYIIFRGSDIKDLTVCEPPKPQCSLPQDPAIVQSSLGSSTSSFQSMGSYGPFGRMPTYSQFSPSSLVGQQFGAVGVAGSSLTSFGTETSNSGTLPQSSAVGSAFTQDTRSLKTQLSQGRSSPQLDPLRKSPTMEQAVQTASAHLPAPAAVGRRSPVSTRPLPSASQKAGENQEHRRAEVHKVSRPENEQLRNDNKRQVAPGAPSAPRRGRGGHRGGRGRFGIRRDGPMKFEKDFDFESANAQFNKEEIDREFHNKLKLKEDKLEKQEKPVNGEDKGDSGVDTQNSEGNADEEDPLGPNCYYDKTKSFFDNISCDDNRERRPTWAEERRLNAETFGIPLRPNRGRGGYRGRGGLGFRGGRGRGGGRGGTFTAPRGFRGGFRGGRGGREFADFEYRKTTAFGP
UniProt Q9UK45: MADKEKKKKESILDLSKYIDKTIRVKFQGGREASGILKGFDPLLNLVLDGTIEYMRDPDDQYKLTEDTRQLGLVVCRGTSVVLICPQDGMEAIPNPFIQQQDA
UniProt Q9NUN5: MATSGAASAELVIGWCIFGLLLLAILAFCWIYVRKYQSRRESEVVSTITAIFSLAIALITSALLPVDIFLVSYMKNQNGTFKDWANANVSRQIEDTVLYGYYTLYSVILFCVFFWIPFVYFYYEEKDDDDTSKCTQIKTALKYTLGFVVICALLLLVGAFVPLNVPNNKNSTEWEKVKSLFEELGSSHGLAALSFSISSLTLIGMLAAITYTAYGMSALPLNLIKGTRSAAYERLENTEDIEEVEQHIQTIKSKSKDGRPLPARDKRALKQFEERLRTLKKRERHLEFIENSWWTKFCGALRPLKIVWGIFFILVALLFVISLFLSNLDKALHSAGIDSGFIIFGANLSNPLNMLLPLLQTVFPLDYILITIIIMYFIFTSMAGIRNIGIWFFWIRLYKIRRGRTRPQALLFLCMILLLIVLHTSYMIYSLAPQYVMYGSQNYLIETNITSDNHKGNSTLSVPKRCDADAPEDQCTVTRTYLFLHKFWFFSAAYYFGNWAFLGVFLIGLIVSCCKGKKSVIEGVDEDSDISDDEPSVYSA
UniProt Q15334: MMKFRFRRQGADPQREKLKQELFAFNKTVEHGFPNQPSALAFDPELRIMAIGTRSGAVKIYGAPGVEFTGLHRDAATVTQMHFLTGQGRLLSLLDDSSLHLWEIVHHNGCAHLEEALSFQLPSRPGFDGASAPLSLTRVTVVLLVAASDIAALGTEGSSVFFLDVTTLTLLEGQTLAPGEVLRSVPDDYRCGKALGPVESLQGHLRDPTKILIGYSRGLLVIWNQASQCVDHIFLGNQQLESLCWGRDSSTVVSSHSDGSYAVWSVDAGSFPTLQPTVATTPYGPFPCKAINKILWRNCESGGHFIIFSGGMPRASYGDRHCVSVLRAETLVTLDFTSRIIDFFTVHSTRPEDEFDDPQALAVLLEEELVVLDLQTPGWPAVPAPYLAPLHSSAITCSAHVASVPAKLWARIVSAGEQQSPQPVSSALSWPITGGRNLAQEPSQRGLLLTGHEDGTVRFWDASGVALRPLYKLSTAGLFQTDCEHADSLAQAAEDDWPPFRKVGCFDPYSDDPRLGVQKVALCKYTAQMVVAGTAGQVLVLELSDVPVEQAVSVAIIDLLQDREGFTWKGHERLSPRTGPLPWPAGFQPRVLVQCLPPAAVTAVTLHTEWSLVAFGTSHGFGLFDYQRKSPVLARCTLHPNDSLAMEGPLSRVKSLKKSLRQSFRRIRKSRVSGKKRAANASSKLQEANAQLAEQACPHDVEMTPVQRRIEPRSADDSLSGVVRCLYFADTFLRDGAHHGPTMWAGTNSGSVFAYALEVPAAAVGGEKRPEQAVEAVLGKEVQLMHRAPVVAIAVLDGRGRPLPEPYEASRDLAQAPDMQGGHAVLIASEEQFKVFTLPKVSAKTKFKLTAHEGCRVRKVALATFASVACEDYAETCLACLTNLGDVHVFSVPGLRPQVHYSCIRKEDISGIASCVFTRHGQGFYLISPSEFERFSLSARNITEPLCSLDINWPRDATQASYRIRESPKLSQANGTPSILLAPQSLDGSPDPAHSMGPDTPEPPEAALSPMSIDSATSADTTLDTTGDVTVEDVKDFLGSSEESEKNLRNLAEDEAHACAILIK
UniProt Q9H0V9: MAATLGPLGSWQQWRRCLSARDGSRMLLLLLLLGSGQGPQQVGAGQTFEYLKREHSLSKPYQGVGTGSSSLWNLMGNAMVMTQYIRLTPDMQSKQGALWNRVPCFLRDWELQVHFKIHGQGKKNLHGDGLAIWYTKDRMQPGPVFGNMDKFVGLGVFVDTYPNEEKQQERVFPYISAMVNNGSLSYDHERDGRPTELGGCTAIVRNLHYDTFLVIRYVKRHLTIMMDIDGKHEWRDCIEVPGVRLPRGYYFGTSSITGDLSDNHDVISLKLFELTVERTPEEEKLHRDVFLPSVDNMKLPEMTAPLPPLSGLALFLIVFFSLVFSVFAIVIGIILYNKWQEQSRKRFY
UniProt Q6P5S2: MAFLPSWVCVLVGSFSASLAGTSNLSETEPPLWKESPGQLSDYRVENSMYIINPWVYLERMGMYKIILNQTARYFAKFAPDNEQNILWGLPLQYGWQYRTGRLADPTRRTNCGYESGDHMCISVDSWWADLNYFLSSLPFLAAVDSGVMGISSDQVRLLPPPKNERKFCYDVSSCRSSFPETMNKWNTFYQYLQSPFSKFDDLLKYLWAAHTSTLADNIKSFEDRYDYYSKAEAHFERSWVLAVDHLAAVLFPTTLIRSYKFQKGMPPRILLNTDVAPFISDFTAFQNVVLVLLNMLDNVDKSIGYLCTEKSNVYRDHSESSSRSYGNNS
UniProt Q9H089: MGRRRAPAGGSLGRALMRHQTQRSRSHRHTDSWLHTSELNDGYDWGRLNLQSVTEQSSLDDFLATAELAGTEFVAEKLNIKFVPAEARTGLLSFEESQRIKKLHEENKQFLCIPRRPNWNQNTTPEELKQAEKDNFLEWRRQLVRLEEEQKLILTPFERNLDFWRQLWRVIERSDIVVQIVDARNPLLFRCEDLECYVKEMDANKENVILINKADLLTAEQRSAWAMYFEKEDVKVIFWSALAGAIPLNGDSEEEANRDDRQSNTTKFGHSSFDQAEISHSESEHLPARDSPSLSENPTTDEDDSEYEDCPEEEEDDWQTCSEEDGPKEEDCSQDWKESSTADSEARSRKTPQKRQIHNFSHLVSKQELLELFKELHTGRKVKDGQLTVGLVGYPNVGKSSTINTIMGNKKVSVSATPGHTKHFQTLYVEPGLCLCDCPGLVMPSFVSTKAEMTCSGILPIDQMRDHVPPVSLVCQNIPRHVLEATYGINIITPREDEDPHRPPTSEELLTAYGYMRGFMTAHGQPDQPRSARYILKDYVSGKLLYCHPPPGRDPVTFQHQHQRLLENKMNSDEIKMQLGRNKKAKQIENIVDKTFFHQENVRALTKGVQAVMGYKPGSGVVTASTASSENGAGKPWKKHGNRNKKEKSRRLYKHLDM
UniProt Q7Z4F1: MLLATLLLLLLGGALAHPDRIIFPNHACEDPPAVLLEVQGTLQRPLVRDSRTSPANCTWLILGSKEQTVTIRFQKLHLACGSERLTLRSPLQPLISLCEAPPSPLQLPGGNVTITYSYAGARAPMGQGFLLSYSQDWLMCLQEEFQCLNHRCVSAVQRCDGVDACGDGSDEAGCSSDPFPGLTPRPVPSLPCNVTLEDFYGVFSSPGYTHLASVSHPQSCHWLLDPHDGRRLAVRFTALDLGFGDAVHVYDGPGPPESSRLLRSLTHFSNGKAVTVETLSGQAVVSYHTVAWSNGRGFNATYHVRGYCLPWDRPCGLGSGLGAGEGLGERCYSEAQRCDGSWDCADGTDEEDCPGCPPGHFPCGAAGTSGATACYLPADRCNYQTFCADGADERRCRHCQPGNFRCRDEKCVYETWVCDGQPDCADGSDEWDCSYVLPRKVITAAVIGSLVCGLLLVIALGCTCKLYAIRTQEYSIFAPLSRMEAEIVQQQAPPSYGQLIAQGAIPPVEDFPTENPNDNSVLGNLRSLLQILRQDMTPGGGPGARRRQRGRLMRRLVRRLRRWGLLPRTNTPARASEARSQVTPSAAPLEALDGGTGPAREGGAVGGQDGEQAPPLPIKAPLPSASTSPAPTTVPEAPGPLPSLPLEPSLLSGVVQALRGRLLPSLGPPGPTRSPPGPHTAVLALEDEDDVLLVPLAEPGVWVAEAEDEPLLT
UniProt P25791: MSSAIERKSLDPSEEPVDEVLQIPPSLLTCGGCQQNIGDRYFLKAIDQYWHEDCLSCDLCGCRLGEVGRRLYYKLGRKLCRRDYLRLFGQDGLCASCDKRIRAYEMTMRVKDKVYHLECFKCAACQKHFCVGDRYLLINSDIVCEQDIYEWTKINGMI
UniProt Q9UIC8: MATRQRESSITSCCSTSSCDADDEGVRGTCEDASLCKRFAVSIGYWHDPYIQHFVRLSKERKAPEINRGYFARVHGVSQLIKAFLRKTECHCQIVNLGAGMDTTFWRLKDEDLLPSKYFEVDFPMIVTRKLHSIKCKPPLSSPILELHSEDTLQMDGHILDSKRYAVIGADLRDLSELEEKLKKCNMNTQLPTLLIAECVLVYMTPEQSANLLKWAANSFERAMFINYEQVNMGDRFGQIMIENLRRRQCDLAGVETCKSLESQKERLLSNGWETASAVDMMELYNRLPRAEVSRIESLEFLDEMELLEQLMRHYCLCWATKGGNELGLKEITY
UniProt Q9Y2L9: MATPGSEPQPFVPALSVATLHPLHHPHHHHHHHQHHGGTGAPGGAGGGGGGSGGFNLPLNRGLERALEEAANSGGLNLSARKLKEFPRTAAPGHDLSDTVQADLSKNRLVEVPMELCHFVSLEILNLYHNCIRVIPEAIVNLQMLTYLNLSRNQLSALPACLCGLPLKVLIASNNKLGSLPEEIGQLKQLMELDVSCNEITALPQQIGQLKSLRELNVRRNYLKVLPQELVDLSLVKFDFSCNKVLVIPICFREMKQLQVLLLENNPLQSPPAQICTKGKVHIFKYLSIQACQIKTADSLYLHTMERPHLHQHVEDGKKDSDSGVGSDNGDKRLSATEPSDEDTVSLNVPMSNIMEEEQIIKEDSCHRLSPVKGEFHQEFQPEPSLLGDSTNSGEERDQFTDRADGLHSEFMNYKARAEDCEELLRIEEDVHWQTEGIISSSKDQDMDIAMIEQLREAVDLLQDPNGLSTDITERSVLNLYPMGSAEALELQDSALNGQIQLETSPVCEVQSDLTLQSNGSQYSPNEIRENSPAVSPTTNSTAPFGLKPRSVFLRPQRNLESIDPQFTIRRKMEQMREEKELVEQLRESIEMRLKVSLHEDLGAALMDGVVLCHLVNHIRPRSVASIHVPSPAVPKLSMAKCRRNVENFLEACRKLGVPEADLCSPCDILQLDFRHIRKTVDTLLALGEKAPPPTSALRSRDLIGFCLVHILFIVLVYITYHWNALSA
UniProt O15243: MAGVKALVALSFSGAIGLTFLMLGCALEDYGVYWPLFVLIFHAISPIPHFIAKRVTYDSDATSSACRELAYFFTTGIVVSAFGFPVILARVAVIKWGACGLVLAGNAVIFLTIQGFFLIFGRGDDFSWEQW
UniProt Q86X29: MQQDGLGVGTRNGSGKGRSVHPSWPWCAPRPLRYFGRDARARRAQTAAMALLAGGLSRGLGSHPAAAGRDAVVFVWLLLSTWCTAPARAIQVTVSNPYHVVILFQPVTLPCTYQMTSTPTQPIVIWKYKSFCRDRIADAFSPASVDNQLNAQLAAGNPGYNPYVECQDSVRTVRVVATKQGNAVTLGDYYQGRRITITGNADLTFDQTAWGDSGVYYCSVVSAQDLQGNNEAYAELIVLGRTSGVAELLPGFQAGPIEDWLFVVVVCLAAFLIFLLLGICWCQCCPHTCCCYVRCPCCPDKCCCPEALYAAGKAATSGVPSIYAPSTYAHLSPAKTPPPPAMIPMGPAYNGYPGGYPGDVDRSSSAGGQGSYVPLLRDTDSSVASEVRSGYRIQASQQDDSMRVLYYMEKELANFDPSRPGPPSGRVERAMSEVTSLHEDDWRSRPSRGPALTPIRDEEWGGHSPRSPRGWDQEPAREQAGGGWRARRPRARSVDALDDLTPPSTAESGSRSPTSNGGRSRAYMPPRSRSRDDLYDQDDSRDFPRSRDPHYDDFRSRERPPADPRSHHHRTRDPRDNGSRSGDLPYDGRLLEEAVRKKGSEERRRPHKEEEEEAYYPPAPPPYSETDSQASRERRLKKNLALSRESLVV

Key:
Experiment in all cases: log2 fold change, soluble protein after heating vs DMSO (PISA); higher = thermal stabilisation; K562 lysate, 10 uM; active = over 0.2 and 3.5 SD of the protein, either way, in both replicates (recomputed)
[1] = compound: C1=CC=C(C=C1)[C@H](COC2=CC3=C(C=C2)NC(=O)N3)NC(=O)C4=CC=CN(C4=O)CC5=CC(=C(C=C5)F)F
Summary of the method: (§1)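 Quantification was by TMTpro 16plex LC-MS/MS with equalised channel sums, applied to the supernatant after 21,000xg for 90 min. Samples were crude K562 extract at 1 mg/mL protein in PBS pH 7.4 with 1 mM MgCl2, treated with 10 μM compound for 30 min, heated for 3 min across 48°C-58°C, pooled and brought to 0.5% NP-40 at 4°C. Values are log-two fold changes in thermal stability relative to solvent controls, from duplicates.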

[2] = compound: CC1=C(SC2=C1C(=N[C@H](C3=NN=C(N32)C)CC(=O)N)C4=CC=C(C=C4)Cl)C
Summary of the method: as §1

[3] = compound: CC1=C2C(=CC=C1)N=C(N(C2=O)C3=CC=CC=C3C)CN4C=NC5=C(N=CN=C54)N
Summary of the method: as §1

[4] = compound: Cc1sc2c(c1C)C(c1ccc(Cl)cc1)=N[C@@H](CC(=O)OC(C)(C)C)c1nnc(C)n1-2
Summary of the method: as §1

[5] = compound: c1ccc([C@@H]2C[C@H]2NC2CCNCC2)cc1
Summary of the method: as §1

Measured: log2 fold change

LNPEP (UniProt Q9UIQ6)
inactive: [1] 0.024 | [2] -0.028 | [3] 0.003 | [4] -0.019 | [5] -0.012

LSM4 (UniProt Q9Y4Z0)
inactive: [1] 0 | [2] 0.013 | [3] -0.016 | [4] -0.03 | [5] -0.034

LPIN1 isoform 7 (UniProt Q14693)
inactive: [1] 0.053 | [2] -0.003 | [3] -0.053 | [4] 0.029 | [5] 0.194

LSM10 (UniProt Q969L4)
inactive: [1] -0.023 | [2] -0.145 | [4] 0.099 | [5] -0.047

LRRC57 (UniProt Q8N9N7)
inactive: [1] -0.019 | [2] -0.003 | [3] 0.015 | [4] 0.019 | [5] -0.035

LETM1 (UniProt O95202)
inactive: [1] 0.006 | [2] -0.017 | [3] 0.002 | [4] 0.042 | [5] -0.053

LRSAM1 (UniProt Q6UWE0)
inactive: [1] -0.009 | [2] -0.007 | [3] 0.024 | [4] -0.001 | [5] -0.011

Taken from the results shown (2 entries):
LETM1 (UniProt O95202)
inactive: [1] 0.006 | [2] -0.017 | [3] 0.002 | [4] 0.042 | [5] -0.053

LRSAM1 (UniProt Q6UWE0)
inactive: [1] -0.009 | [2] -0.007 | [3] 0.024 | [4] -0.001 | [5] -0.011

Continued.

LSM14A isoform 2 (UniProt Q8ND56)
inactive: [1] 0.037 | [2] 0.023 | [3] 0.015 | [4] 0.043 | [5] -0.064

LSM7 (UniProt Q9UK45)
inactive: [1] 0.066 | [2] -0.001 | [3] -0.044 | [4] -0.013 | [5] -0.143

LMBRD1 (UniProt Q9NUN5)
inactive: [1] 0.099 | [2] -0.065 | [3] -0.009 | [4] -0.155 | [5] -0.001

LGALS1 (UniProt P09382)
inactive: [1] 0.02 | [2] -0.082 | [3] -0.001 | [4] -0.031 | [5] -0.111

LIN9 isoform 2 (UniProt Q5TKA1)
inactive: [1] -0.04 | [2] -0.016 | [3] 0.059 | [4] -0.061 | [5] 0.032

LONP1 (UniProt P36776)
inactive: [1] -0.008 | [2] 0.025 | [3] -0.004 | [4] 0.023 | [5] 0.002

LLGL1 (UniProt Q15334)
inactive: [1] 0.038 | [2] 0.052 | [3] 0.024 | [4] -0.056 | [5] 0.074

LMAN2L isoform 2 (UniProt Q9H0V9)
inactive: [1] 0.002 | [2] 0.003 | [3] -0.008 | [4] 0.002 | [5] -0.023

LRRC20 (UniProt Q8TCA0)
inactive: [1] -0.053 | [2] -0.107 | [3] 0.054 | [4] -0.019 | [5] 0.015

LEG1 (UniProt Q6P5S2)
inactive: [1] -0.29 | [2] 0.162 | [4] -0.059

LSG1 (UniProt Q9H089)
inactive: [1] 0.068 | [2] 0.038 | [3] 0.084 | [4] -0.028 | [5] -0.044

LRP6 (UniProt O75581)
inactive: [1] 0.008 | [2] 0.139 | [4] 0.043

LRP10 (UniProt Q7Z4F1)
inactive: [1] -0.032 | [2] -0.029 | [4] -0.022 | [5] -0.048

LRRC8A (UniProt Q8IWT6)
inactive: [1] -0.086 | [2] 0.117 | [3] 0.028 | [4] 0.012 | [5] 0.011

LMO2 isoform 3 (UniProt P25791)
inactive: [1] 0 | [2] -0.221 | [3] 0.087 | [4] 0.065 | [5] -0.14

LRPAP1 (UniProt P30533)
inactive: [1] 0.055 | [2] -0.027 | [3] -0.02 | [4] 0.053 | [5] 0.084

LCMT1 (UniProt Q9UIC8)
inactive: [1] 0.044 | [2] 0.006 | [3] -0.052 | [4] 0.014 | [5] -0.032

LARS2 (UniProt Q15031)
inactive: [1] -0.07 | [2] -0.072 | [3] -0.019 | [4] 0.066 | [5] 0.064

LRCH1 isoform 3 (UniProt Q9Y2L9)
inactive: [1] 0.063 | [2] -0.001 | [4] -0.177

LSM11 (UniProt P83369)
inactive: [3] 0.285 | [4] -0.045 | [5] -0.089

LEPROT (UniProt O15243)
inactive: [1] 0.049 | [2] -0.009 | [5] -0.161

LSR isoform 3 (UniProt Q86X29)
inactive: [5] 0.117

LDHD (UniProt Q86WU2)
inactive: [1] 0.182 | [2] -0.073 | [5] -0.239
